From publication PMC12663137 (Nature Communications, 2025) come the findings set out here.

By UniProt entry, the sequences of proteins in these tests, tags left out. Where a name states a change or a piece, a line headed by the entry shows the natural chain unless it says otherwise. Residues count along the entry.
UniProt Q7L0J3, whole entry: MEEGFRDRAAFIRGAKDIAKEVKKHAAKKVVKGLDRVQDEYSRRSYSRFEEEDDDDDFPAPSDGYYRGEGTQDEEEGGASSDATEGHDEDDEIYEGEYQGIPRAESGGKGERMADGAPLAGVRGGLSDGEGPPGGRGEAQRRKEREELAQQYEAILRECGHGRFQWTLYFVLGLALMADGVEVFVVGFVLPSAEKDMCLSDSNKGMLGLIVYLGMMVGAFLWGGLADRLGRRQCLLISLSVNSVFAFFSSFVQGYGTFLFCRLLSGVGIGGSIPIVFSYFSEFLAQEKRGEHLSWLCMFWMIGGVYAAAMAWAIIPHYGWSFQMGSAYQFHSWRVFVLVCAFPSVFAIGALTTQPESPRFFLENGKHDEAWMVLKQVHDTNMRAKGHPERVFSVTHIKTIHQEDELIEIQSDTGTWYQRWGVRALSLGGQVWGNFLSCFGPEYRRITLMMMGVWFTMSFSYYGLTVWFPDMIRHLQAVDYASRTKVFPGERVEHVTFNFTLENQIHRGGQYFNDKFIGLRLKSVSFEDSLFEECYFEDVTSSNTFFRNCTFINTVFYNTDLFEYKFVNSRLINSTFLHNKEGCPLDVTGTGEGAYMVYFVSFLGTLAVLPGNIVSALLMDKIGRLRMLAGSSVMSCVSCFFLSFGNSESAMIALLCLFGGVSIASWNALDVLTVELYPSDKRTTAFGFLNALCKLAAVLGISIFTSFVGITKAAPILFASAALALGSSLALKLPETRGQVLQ
UniProt Q7L0J3, 141-742 F188A limits assumed: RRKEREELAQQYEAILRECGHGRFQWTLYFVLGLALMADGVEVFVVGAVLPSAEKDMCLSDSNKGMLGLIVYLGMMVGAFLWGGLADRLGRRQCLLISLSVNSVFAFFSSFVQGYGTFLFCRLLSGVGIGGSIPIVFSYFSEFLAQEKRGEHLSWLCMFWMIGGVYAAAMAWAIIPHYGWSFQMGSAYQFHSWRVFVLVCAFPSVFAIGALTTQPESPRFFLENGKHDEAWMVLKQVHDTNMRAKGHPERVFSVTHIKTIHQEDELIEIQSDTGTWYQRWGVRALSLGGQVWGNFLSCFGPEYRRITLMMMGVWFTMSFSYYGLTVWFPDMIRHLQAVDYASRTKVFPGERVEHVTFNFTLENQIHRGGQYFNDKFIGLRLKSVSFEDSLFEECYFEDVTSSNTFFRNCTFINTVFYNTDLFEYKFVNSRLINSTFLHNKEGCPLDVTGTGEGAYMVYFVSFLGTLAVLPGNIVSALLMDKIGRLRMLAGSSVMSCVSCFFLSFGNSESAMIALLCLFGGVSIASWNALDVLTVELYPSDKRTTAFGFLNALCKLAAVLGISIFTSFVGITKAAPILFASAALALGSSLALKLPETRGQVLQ
UniProt Q7L0J3, 141-742 limits assumed: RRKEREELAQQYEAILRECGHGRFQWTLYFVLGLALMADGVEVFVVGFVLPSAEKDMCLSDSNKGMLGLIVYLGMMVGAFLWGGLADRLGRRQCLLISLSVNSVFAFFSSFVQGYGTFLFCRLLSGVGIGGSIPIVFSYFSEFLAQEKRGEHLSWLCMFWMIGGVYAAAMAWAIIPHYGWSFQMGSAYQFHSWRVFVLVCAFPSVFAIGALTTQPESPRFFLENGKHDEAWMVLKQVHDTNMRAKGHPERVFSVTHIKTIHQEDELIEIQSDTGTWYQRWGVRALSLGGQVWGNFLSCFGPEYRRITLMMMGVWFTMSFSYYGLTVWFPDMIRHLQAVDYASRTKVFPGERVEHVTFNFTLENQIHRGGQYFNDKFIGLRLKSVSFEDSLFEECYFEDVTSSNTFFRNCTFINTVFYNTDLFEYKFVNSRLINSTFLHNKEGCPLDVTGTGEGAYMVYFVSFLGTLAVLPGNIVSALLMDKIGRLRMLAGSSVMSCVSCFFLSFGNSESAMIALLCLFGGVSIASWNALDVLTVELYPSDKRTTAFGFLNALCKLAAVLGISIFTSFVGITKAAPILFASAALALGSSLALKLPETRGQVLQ

Molecules are shown by their SMILES. Some entries of the source have several records that differ or are many. This list holds those alone. There may be further records. Values given together differ, and nothing given here explains why; dose, time, organism, isomer or construct need not be as stated for each record.

The target of assay [1] is SV2AEM (Homo sapiens, UniProt Q7L0J3). The assay can be described thus: Competitive displacement of 10 nM 3H-UCB-J, SV2AEM membranes (Fig. 1A). As to conditions: SV2A_EM.
In assay [2] the target is SV2A (Homo sapiens, UniProt Q7L0J3). The experiment in a line: Steady-state (saturation) binding of 3H-UCB-J with 30 µM UCB1244283 or 1% DMSO (Fig. 4A). The following applies: tested as the radiolabelled form.
Assay [3] deals with SV2AEM WT or SV2AEM F188A (Homo sapiens, UniProt Q7L0J3). The experiment in a line: Dissociation kinetics of 3H-UCB-J (Fig. 4E). The following applies: WT, DMSO, tested as the radiolabelled form.
Assay [4] addresses SV2AEM WT or SV2AEM F188A (Homo sapiens, UniProt Q7L0J3, F188A). The assay can be described thus: Dissociation kinetics of 3H-UCB-J (Fig. 4E). As to conditions: F188A, DMSO, tested as the radiolabelled form.

As to `COCc1nn2c(CN3CC(CC(F)(F)Cl)CC3=O)c(C(F)(F)F)nc2s1` (stereo not shown), the “Binding of 3H-UCB-J (%)” value in assay [1] (Log [Padsevonil] (M) -7.000) is given as 11.96, 10.66, 7.38, 14.13, 23.27, 6.66%; in assay [1] (Log [Padsevonil] (M) -7.301) it was 13.33, 31.99, 42.07, 28.44, 41.07, 12.87%.
As to `Cc1cnccc1CN1C[C@@H](c2cc(F)c(F)c(F)c2)CC1=O` [UCB-J], the “3H-UCB-J Binding (f.mol/assay)” value is 3 f.mol/assay, 2 f.mol/assay, 1 f.mol/assay in assay [2] (3H-UCB-J 0.78 nM); 3, 2, 5, 4, 7 f.mol/assay in assay [2] (3H-UCB-J 3.12 nM); 10, 12, 28, 27 f.mol/assay in assay [2] (3H-UCB-J 12.50 nM); 32, 20, 39, 42, 55, 28 f.mol/assay in assay [2] (3H-UCB-J 100.00 nM). Also, the “3H-UCB-J Binding (%)” value in assay [3] (20 min) was 2.24%, 14.06%, 8.82%; in assay [3] (30 min) it was 0.76%, 3.34%, 3.64%; in assay [3] (40 min) it was -0.73%, 1.87%, 5.76%; in assay [3] (50 min), 1.42%, 4.53%, -0.0355%; in assay [3] (70 min), 2.52% and -0.78%; in assay [4] (15 min) it was 1.05% and 3.24%. The “3H-UCB-J Binding (%)” value in assay [4] (20 min) is -0.29% and 0.29%.
